## Drug screen on melanoma cell lines: apoptosis marker

From a melanoma drug combination screen (doi:10.1371/journal.pone.0140310); values rounded.

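Human melanoma cell lines in 1,536-well plates were treated with a pair of drugs for 72 h, then fixed, stained and imaged. Each value is the cleaved-PARP-positive fraction of nuclei relative to DMSO-treated wells, in %, so that 100 equals the control and higher values mean more apoptosis. Every drug was used at one fixed concentration, the higher of two screened. No replicate spread is given; individual values may be noisy. Basal and induced levels differ widely between cell lines.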 Only some of the drugs and lines screened are listed, without regard to their results. A dash means that no value is listed here.

All values are for the listed drug together with MK-1775 (0.1 µM): C=CCn1c(=O)c2cnc(Nc3ccc(N4CCN(C)CC4)cc3)nc2n1-c1cccc(C(C)(C)O)n1

| # | Second drug | WM451Lu | UACC-62 | G-361 | IST-MEL1 | WM115 | WM3619 | UACC-257 | SK-MEL-28 | MEL-HO |
|---|---|---|---|---|---|---|---|---|---|---|
| 1 | CCCCCCCCCCCC1=C(O)C(=O)C=C(O)C1=O at 6 µM | 65.4 | 100 | 174 | 175 | 301 | 242 | 18.0 | 84.1 | 61.0 |
| 2 | COc1cc(Nc2ncc(F)c(Nc3ccc4c(n3)NC(=O)C(C)(C)O4)n2)cc(OC)c1OC at 2 µM | 179 | 205 | 141 | - | 294 | 180 | 87.2 | 96.7 | 215 |
| 3 | O=C(Nc1cccc(Cl)c1)Nc1ncc(CCNc2ncnc3ccsc23)s1 at 0.004 µM | 304 | 105 | 246 | 733 | 947 | 213 | 107 | 217 | 88.6 |
| 4 | O=C(O)c1ccc2c(c1)nc(Nc1cccc(Cl)c1)c1ccncc12 at 2 µM | 46.4 | 200 | 204 | 140 | 154 | 294 | 258 | 99.9 | 117 |
| 5 | O=C(O)[C@@H]1[O][Sb](=[O])([O][Sb]2(=[O])[O][C@H]([C@H](O)CO)[C@H](O)[C@H](C(=O)O)[O]2)[O][C@H]([C@H](O)CO)[C@@H]1O (some centres unmarked) at 10 µM | 229 | 157 | 262 | 62.0 | 155 | 209 | 80.6 | 243 | 84.0 |
| 6 | Cn1cnc2c(F)c(Nc3ccc(Br)cc3Cl)c(C(=O)NOCCO)cc21 at 0.075 µM | 971 | 169 | 186 | 451 | 139 | 495 | 41.8 | 281 | 81.4 |
| 7 | Cn1c(=O)n(-c2ccc(C(C)(C)C#N)cc2)c2c3cc(-c4cnc5ccccc5c4)ccc3ncc21 at 0.02 µM | 221 | 202 | 163 | 109 | 209 | 320 | 75.0 | 384 | 96.8 |
| 8 | N#CC[C@H](C1CCCC1)n1cc(-c2ncnc3[nH]ccc23)cn1 at 5 µM | 88.5 | 113 | 181 | 94.1 | 161 | 199 | 156 | 137 | 47.0 |
| 9 | O=S(=O)(c1ccccc1)N(CC(F)(F)F)c1ccc(C(O)(C(F)(F)F)C(F)(F)F)cc1 at 7 µM | 30.7 | 168 | 124 | 122 | 127 | 123 | 25.2 | 82.1 | 93.6 |
| 10 | O=C(Nc1cc(C(F)(F)F)cc(C(F)(F)F)c1)c1cc(Cl)ccc1O at 0.08 µM | 59.5 | 162 | 83.1 | 80.1 | 78.3 | 159 | 80.5 | 138 | 76.4 |
| 11 | O=C(/C=C/c1cccnc1)NCCCCC1CCN(C(=O)c2ccccc2)CC1 at 0.05 µM | 42.5 | 135 | 7070 | 150 | 109 | 270 | 74.4 | 277 | 330 |
| 12 | CCN(CC)CCCCNc1ncc2cc(-c3cc(OC)cc(OC)c3)c(NC(=O)NC(C)(C)C)nc2n1 at 0.5 µM | 36.2 | 143 | 105 | 51.2 | 128 | 312 | 73.9 | 758 | 43.7 |
| 13 | COc1cc(N2CCC(N3CCN(C)CC3)CC2)ccc1Nc1ncc(Cl)c(Nc2ccccc2S(=O)(=O)C(C)C)n1 at 0.4 µM | 174 | 91.7 | 123 | 136 | 712 | 272 | 49.3 | 98.1 | 163 |
| 14 | NC(=O)c1ccc(N(C(N)=O)c2c(F)cccc2F)nc1-c1ccc(F)cc1F at 2 µM | 117 | 189 | 72.2 | 250 | 379 | 138 | 42.9 | 378 | 66.0 |
| 15 | Cc1ccc(Nc2nccc(N(C)c3ccc4c(C)n(C)nc4c3)n2)cc1S(N)(=O)=O at 2 µM | 122 | 104 | 223 | 40.0 | 310 | 190 | 45.3 | 69.9 | 78.9 |
| 16 | Cc1cc([N+](=O)[O-])ccc1NS(=O)(=O)c1cc(Cl)ccc1Cl at 5 µM | 57.3 | 189 | 429 | 95.4 | 121 | 207 | 59.3 | 65.9 | 165 |
| 17 | CC(C)CCN1c2nc(Nc3cc(F)c(O)c(F)c3)ncc2N(C)C(=O)C1C (centres unmarked) at 1 µM | 81.6 | 393 | 128 | 65.6 | 67.2 | 223 | 45.0 | 119 | 63.6 |
| 18 | Cn1nnc2c(C(N)=O)ncn2c1=O at 10 µM | 315 | 173 | 114 | 113 | 1240 | 240 | 101 | 405 | 85.6 |
| 19 | CNC(=O)c1cc(Oc2ccc(NC(=O)Nc3ccc(Cl)c(C(F)(F)F)c3)cc2)ccn1 at 2 µM | 42.7 | 93.8 | 99.9 | 364 | 226 | 191 | 37.4 | 163 | 70.7 |
| 20 | O=C(Oc1ccc([N+](=O)[O-])cc1)N1CCC(C(O)(c2ccc3c(c2)OCO3)c2ccc3c(c2)OCO3)CC1 at 5 µM | 222 | 115 | 99.6 | 61.4 | 121 | 295 | 49.8 | 271 | 127 |
| 21 | C=CCNC1=C2C[C@@H](C)C[C@H](OC)[C@H](O)[C@@H](C)/C=C(\C)[C@H](OC(N)=O)[C@@H](OC)/C=C\C=C(/C)C(=O)NC(=CC1=O)C2=O at 0.01 µM | 227 | 176 | 229 | 703 | 1250 | 240 | 40.0 | 289 | 81.3 |
| 22 | N.N.[Cl][Pt][Cl] at 8 µM | 52.1 | 123 | 178 | 43.7 | 996 | 388 | 309 | 467 | 89.1 |
| 23 | COc1cc2c(Oc3ccc4[nH]c(C)cc4c3F)ncnc2cc1OCCCN1CCCC1 at 2 µM | 76.2 | 241 | 185 | 69.6 | 176 | 204 | 114 | 204 | 183 |
| 24 | O=C(O)C(=O)Nc1sc2c(c1C(=O)O)CCNC2 at 8.33 µM | 88.7 | 84.5 | 74.7 | 84.3 | 176 | 243 | 53.6 | 93.3 | 103 |
| 25 | Nc1nc(F)nc2c1ncn2[C@@H]1O[C@H](CO)[C@@H](O)[C@@H]1O at 1 µM | 75.9 | 227 | 588 | 111 | 178 | 416 | 3420 | 1340 | 113 |
| 26 | CCN(CC)CCNC(=O)c1c(C)[nH]c(/C=C2\C(=O)Nc3ccc(F)cc32)c1C at 2 µM | 130 | 172 | 105 | 41.6 | 139 | 233 | 108 | 157 | 67.6 |
| 27 | CC(C)C[C@H](NC(=O)[C@H](Cc1ccccc1)NC(=O)c1cnccn1)B(O)O at 0.005 µM | 988 | 203 | 4990 | 446 | 3710 | 2680 | 44.5 | 250 | 223 |
| 28 | Cc1cc(Nc2cc(N3CCN(C)CC3)nc(/C=C/c3ccccc3)n2)n[nH]1 at 0.2 µM | 162 | 174 | 132 | 92.1 | 475 | 298 | 107 | 266 | 76.8 |
| 29 | Nc1ncn([C@H]2C[C@H](O)[C@@H](CO)O2)c(=O)n1 at 0.5 µM | 97.8 | 121 | 96.7 | 258 | 337 | 64.4 | 81.3 | 104 | 307 |
| 30 | C[C@]12O[C@H](C[C@]1(O)CO)n1c3ccccc3c3c4c(c5c6ccccc6n2c5c31)CNC4=O at 0.02 µM | 308 | 133 | 159 | 84.8 | 138 | 380 | 40.1 | 443 | 164 |
| 31 | COc1ccc2c(c1)CCC1C2CCC2(C)C(NCCCCCCN3C(=O)C=CC3=O)CCC12 (centres unmarked) at 2 µM | 113 | 211 | 76.6 | 73.4 | 171 | 440 | 50.9 | 403 | 101 |
| 32 | C/C(O)=C(\C#N)C(=O)Nc1cc(Br)ccc1Br at 10 µM | 63.8 | 123 | 102 | 109 | 137 | 311 | 29.7 | 370 | 52.0 |
| 33 | Oc1cc(-c2nc(-c3ccccc3)[nH]c2-c2ccncc2)ccc1Cl at 1 µM | 360 | 814 | 390 | 70.3 | 430 | 203 | 96.4 | 333 | 54.8 |
| 34 | CN(C)S(=O)(=O)c1ccc2c(c1)/C(=C/c1cc3c([nH]1)CCCC3)C(=O)N2 at 2 µM | 59.5 | 138 | 62.3 | 215 | 952 | 209 | 62.9 | 216 | 77.5 |
| 35 | CCCCCCCCCCCCCCCCCCOP(=O)([O-])OC1CC[N+](C)(C)CC1 at 2 µM | 37.3 | 106 | 91.7 | 239 | 70.3 | 185 | 39.5 | 226 | 242 |
| 36 | CC1(C)NC(=O)N(c2ccc([N+](=O)[O-])c(C(F)(F)F)c2)C1=O at 5 µM | 56.1 | 140 | 90.7 | 116 | 191 | 166 | 57.0 | 141 | 69.5 |

For reference, 3 entries once more:

| Second drug | WM451Lu | UACC-62 | G-361 | IST-MEL1 | WM115 | WM3619 | UACC-257 | SK-MEL-28 | MEL-HO |
|---|---|---|---|---|---|---|---|---|---|
| NC(=O)c1ccc(N(C(N)=O)c2c(F)cccc2F)nc1-c1ccc(F)cc1F at 2 µM | 117 | 189 | 72.2 | 250 | 379 | 138 | 42.9 | 378 | 66.0 |
| CC1(C)NC(=O)N(c2ccc([N+](=O)[O-])c(C(F)(F)F)c2)C1=O at 5 µM | 56.1 | 140 | 90.7 | 116 | 191 | 166 | 57.0 | 141 | 69.5 |
| C=CCNC1=C2C[C@@H](C)C[C@H](OC)[C@H](O)[C@@H](C)/C=C(\C)[C@H](OC(N)=O)[C@@H](OC)/C=C\C=C(/C)C(=O)NC(=CC1=O)C2=O at 0.01 µM | 227 | 176 | 229 | 703 | 1250 | 240 | 40.0 | 289 | 81.3 |